At least one structure is not confirmed: it was looked up by name or label, or the drawing left a doubt. Numbered stars: 1 amine (or outer) side, 2 acyl side, 3 side chain; on linkers, the order of the positions; unused ones are H or OH. Side chains are listed from the residue outwards. Peptide text beside a SMILES is read from it. * marks the point of attachment. Decanoyl(10-(4-HOOC-PhO)) = O=C(O)c1ccc(OCCCCCCCCCC(=O)*)cc1; γGlu = O=C(O)[C@H](CCC(=O)[*:2])N[*:1]; AEEA = NCCOCCOCC(=O)O
Biological target: T1, human GLP-1 receptor (Homo sapiens, UniProt P43220)
T1 construct: expressed in transfected cells; host or cells: BHK cells, clone FCW467-12A (parent line BHKTS13), membranes
Test: In vitro potency, AlphaScreen cAMP assay on membranes
Type: biochemical
Details: cAMP formation, membranes of BHK467-12A cells
Description: The purpose of this example is to test the activity, or potency, in vitro of, for example, the GLP-1 parent drugs of the prodrugs of the invention.
Purified plasma membranes from a stable transfected cell line, BHK467-12A (tk-ts13), expressing the human GLP-1 receptor were stimulated with the GLP-1 drug in question, and the potency of cAMP production was measured using the AlphaScreen™ cAMP Assay Kit from Perkin Elmer Life Sciences. The basic principle of The AlphaScreen Assay is a competition between endogenous cAMP and exogenously added biotin-cAMP. The capture of cAMP is achieved by using a specific antibody conjugated to acceptor beads.
A stable transfected cell line and a high expressing clone were selected for screening. The cells were grown at 5% CO2 in DMEM, 10% FCS, 1% Pen/Strep (Penicillin/Streptomycin) and preferably 0.5 (alternatively 1.0 mg/ml) of the selection marker G418.
Cells at approximate 80% confluence were washed twice with PBS and harvested with Versene (aqueous solution of the tetrasodium salt of ethylenediaminetetraacetic acid), centrifuged 5 min at 1000 rpm and the supernatant removed. The additional steps were all made on ice. The cell pellet was homogenised by the Ultrathurax for 20-30 s in 10 ml of Buffer 1 (20 mM Na-HEPES, 10 mM EDTA, pH=7.4), centrifuged 15 min at 20,000 rpm and the pellet resuspended in 10 ml of Buffer 2 (20 mM Na-HEPES, 0.1 mM EDTA, pH=7.4). The suspension was homogenised for 20-30 s and centrifuged 15 min at 20,000 rpm. Suspension in Buffer 2, homogenisation and centrifugation was repeated once and the membranes were resuspended in Buffer 2. The protein concentration was determined and the membranes stored at −80° C. until use.
The assay was performed in flat-bottom 96-well plates (Costar cat. no: 3693). The final volume per well was 50 μl.
AlphaScreen cAMP Assay Kit from Perkin Elmer Life Sciences (cat. No: 6760625M); containing Anti-cAMP Acceptor beads (10 U/μl), Streptavidin Donor beads (10 U/μl) and Biotinylated-cAMP (133 U/μl). […]

Chains of the proteins cited; added tags and fusions are not shown. Residues count along the entry.
UniProt P43220, 24-463: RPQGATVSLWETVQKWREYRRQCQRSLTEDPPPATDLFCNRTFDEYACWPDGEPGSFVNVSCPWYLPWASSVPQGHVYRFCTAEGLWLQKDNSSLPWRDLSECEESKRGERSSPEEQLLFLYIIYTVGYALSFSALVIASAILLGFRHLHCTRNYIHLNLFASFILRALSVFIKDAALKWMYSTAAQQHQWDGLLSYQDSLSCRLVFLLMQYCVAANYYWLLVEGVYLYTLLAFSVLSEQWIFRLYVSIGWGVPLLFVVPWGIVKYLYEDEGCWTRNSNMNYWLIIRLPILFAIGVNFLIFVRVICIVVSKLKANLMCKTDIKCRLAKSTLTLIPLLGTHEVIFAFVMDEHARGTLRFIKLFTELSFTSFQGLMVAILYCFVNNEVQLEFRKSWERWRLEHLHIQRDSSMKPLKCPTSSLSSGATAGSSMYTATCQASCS

Compound: CC[C@H](C)[C@H](NC(=O)[C@H](Cc1ccccc1)NC(=O)[C@H](CCC(=O)O)NC(=O)[C@H](CCCNC(=N)N)NC(=O)[C@@H](NC(=O)[C@H](C)NC(=O)[C@H](CCC(N)=O)NC(=O)[C@H](CCC(=O)O)NC(=O)[C@H](CCC(=O)O)NC(=O)[C@H](CC(C)C)NC(=O)[C@H](Cc1ccc(O)cc1)NC(=O)[C@H](CCCCNC(=O)COCCOCCNC(=O)COCCOCCNC(=O)CC[C@H](NC(=O)CCCCCCCCCOc1ccc(C(=O)O)cc1)C(=O)O)NC(=O)[C@H](CO)NC(=O)[C@@H](NC(=O)[C@H](CC(=O)O)NC(=O)[C@H](CO)NC(=O)[C@@H](NC(=O)[C@H](Cc1ccccc1)NC(=O)[C@@H](NC(=O)CNC(=O)[C@H](CCC(=O)O)NC(=O)[C@H](C)NC(=O)[C@@H](N)Cc1c[nH]cn1)[C@@H](C)O)[C@@H](C)O)C(C)C)C(C)C)C(=O)N[C@@H](C)C(=O)N[C@@H](CCCCNC(=O)COCCOCCNC(=O)COCCOCCNC(=O)CC[C@H](NC(=O)CCCCCCCCCOc1ccc(C(=O)O)cc1)C(=O)O)C(=O)N[C@@H](CC(C)C)C(=O)N[C@H](C(=O)N[C@@H](CCCNC(=N)N)C(=O)NCC(=O)N[C@@H](CCCNC(=N)N)C(=O)NCC(=O)O)C(C)C [reference compound] (H-HAEGTFTSDVSK([AEEA-AEEA-γGlu-Decanoyl(10-(4-HOOC-PhO))])YLEEQAVREFIAK([AEEA-AEEA-γGlu-Decanoyl(10-(4-HOOC-PhO))])LVRGRG-OH; C-terminus assumed)
- EC50: 220 pM
